# This is one part of the list. Further columns of the screen follow, without active or inactive calls. Compounds called inactive in the main read-out are mostly missing here. Words in brackets tell the shape of the fitted curve; partial curves, single points and poor fits give uncertain potencies.
# Assay: qHTS Assay to Find Inhibitors of Chronic Active B-Cell Receptor Signaling
# Conditions: ABC-DLBCL IkBa-CBG/CBR reporter, luminescence ratio (green luciferase fused to IkBa over red control in TMD8 lymphoma cells), 4 h
# Outline: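 Cell line TMD8 (human ABC DLBCL), stably expressing tet-inducible CBG68-IkBa fusion and CBR; IMDM/0.5% FBS; cpd up to 46 uM; dox induction, 4 h, 37C/5% CO2; dual luminescence; green/red ratio; MG132 control.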
# [1] = measured here: CBR red luminescence, cell number
# [2] = measured here: IkBa-CBG green luminescence
Structure (SMILES),AC50 [1],AC50 [2]
C=CCn1c(=O)c(C(=O)Nc2ccccc2C)c(O)c2ccccc21,"0.631 µM [rising, full curve, poor fit]",–
COc1cc2sc(-c3ccccc3OC)c(-c3ccc(O)cc3)c2cc1OC,"23.1 µM [falling, single point]","11.6 µM [rising, partial curve, poor fit]"
CCOC(=O)CN1CC23C=CC(O2)C(C(=O)NCc2ccc(C)cc2)C3C1=O (configuration not stated),"8.91 µM [rising, partial curve, poor fit]",–
Cc1snc(SCc2ccc(Cl)cc2)c1C#N,"15.8 µM [rising, partial curve, poor fit]",–
Cn1c(=O)n(C)c2cc(NS(=O)(=O)c3ccc(Br)s3)ccc21,"11.2 µM [rising, partial curve, poor fit]","11.2 µM [falling, partial curve, poor fit]"
C[C@@H](CN1C2=NC[C@H](Cc3ccccc3)N2C[C@H]1Cc1ccc(O)cc1)NC(=O)CCC1CCCCC1,"5.62 µM [falling, partial curve]","28.2 µM [rising, partial curve, poor fit]"
Nn1c(SCC(=O)Nc2ccc(F)c(F)c2)nnc1C1CCCCC1,"35.5 µM [falling, single point]",–
COc1ccc(-c2c(C)c3ccc(O)cc3oc2=O)cc1,"1.41 µM [rising, partial curve, poor fit]","7.94 µM [falling, partial curve]"
COc1ccccc1CNCC(O)(c1ccc(Cl)cc1)c1ccc(Cl)cc1,"17.8 µM [falling, single point]","20 µM [rising, partial curve, poor fit]"
Cn1cc(S(=O)(=O)N2CCOCC2)cc1C(=O)Nc1cccc(Cl)c1,"11.2 µM [falling, single point]",–
O=C(c1ccccc1)c1ccc2nc(N3CCCCC3)c3nncn3c2c1,"2.91 µM [rising, partial curve, poor fit]",–
COc1ccc(CSc2cccc3cccnc23)cc1[N+](=O)[O-],"29.1 µM [rising, single point]",–
O=C(Nc1ccccc1F)Nc1cccc2ccc(O)cc12,"14.1 µM [falling, partial curve]",–
COc1ccccc1NC(=O)CSc1nc2c(sc3ccccc32)c(=O)n1CCN(C)C,"12.6 µM [falling, partial curve, poor fit]",–
O=C1NC2(CCCCCC2)Cc2ccccc21,"29.1 µM [rising, single point]",–
CCOC(=O)[C@H]1[C@H]2COc3cc(OC)ccc3[C@@H]2N2C(=O)CN(CCc3c[nH]c4ccccc34)C(=O)[C@@]12C,"29.1 µM [falling, single point]",–
COc1cccc(/C=C(/C#N)c2ccc(F)cc2)c1OCc1cccc(C(=O)O)c1,"6.51 µM [rising, single point]",–
CN(C(=O)CSc1nncn1C)C1CCCN(Cc2ccccc2F)C1 (configuration not stated),"12.6 µM [falling, partial curve, poor fit]",–
CCCNC(=O)c1csc(Nc2cccc3ccccc23)n1,"11.2 µM [falling, partial curve]",–
CNC(=O)COc1ccccc1C(=O)Nc1ccc2c(c1)oc1ccccc12,"11.6 µM [falling, partial curve]",–

# Rewritten with tabs: entries from further up
Structure (SMILES)	AC50 [1]	AC50 [2]
C=CCn1c(=O)c(C(=O)Nc2ccccc2C)c(O)c2ccccc21	0.631 µM [rising, full curve, poor fit]	–
C[C@@H](CN1C2=NC[C@H](Cc3ccccc3)N2C[C@H]1Cc1ccc(O)cc1)NC(=O)CCC1CCCCC1	5.62 µM [falling, partial curve]	28.2 µM [rising, partial curve, poor fit]

# Further structures

Structure (SMILES),AC50 [1],AC50 [2]
Cc1ccc(NC(=O)c2cc(N(C)C)ccc2[P+](=O)O)cc1,"1.58 µM [rising, full curve, poor fit]",–
C=C1C(=O)O[C@@H]2C[C@@H](C)[C@@H]3C=CC(=O)[C@@]3(C)[C@@H](OC(C)=O)[C@H]12,"1.41 µM [falling, full curve]","6.31 µM [rising, full curve, poor fit]"
COc1ccc(CC(=O)OCc2cc(=O)n3cc(Br)ccc3n2)cc1OC,"0.355 µM [rising, full curve, poor fit]",–
Cc1ccc2nc(-c3ccccc3Cl)cc(C(=O)Nc3cc(C)on3)c2c1,"10 µM [falling, partial curve]",–
O=C(CN1C(=O)c2ccccc2S1(=O)=O)NCCc1ccccc1,"0.0891 µM [falling, full curve, poor fit]",–
O=C(C(Sc1ccccc1)c1ccccc1)N1CCOCC1 (configuration not stated),"6.51 µM [falling, partial curve, poor fit]",–
CC1CCC(C(C)C)C(OC(=O)COC(=O)c2ccc(N)cc2)C1 (configuration not stated),"1.3 µM [rising, full curve, poor fit]",–
CCn1c(SCC#N)nc2ccccc2c1=O,"35.5 µM [falling, single point]",–
CCOC(=O)C1=C(C)N=C2SC(C(=O)OC)=CC(=O)N2C1c1ccc(F)cc1 (configuration not stated),"6.31 µM [falling, partial curve, poor fit]",–
O=C(O)c1ccccc1/C=N/NC(=S)NC1CCCCC1,"1.12 µM [rising, partial curve, poor fit]",–
COC(=O)c1ccc(C)c(NC(=O)CN2C(=O)c3ccccc3S2(=O)=O)c1,"18.4 µM [rising, single point]",–
CC(CSc1nc2ccccc2s1)Cn1c(N2CCCC2)nc2c1c(=O)[nH]c(=O)n2C (configuration not stated),"6.51 µM [rising, partial curve, poor fit]",–
CCN(c1ccccc1)S(=O)(=O)c1ccc(C(=O)NCC(=O)Nc2ccc(F)c(F)c2F)cc1,"7.31 µM [falling, single point]",–
O=C1OCCN1C(=O)[C@H]1[C@H](c2ccc(Cl)cc2)C(c2ccc(F)cc2)=NN1c1ccccc1,"20.6 µM [rising, partial curve, poor fit]",–
O=C(Nc1cccc([N+](=O)[O-])c1)Nc1cccc([N+](=O)[O-])c1,"1.41 µM [rising, full curve, poor fit]",–
CC(C)n1cnc2c(NCc3ccccc3)cc(OCC3CCN(C)CC3)cc21,"29.1 µM [falling, single point]",–
Oc1ccc2ccccc2c1/C=N/c1nccs1,"25.1 µM [falling, single point]",–
CCOC(=O)Cc1csc(NC(=S)NC(=O)c2cc(OC)c(OC)c(OC)c2)n1,"22.4 µM [falling, single point]",–
O=C(c1ccc(S(=O)(=O)Cc2ccccc2F)c([N+](=O)[O-])c1)N1CCCCCC1,"14.1 µM [falling, partial curve, poor fit]","2 µM [rising, partial curve, poor fit]"
COc1ccc(OC)c(Nc2c3ccccc3nc3ccccc23)c1,"2.82 µM [falling, partial curve, poor fit]",–

Structure (SMILES),AC50 [1],AC50 [2]
Cc1cc(C(F)F)n2ncc(C(=O)NCCc3ccccc3Cl)c2n1,"5.8 µM [rising, partial curve]",–
COc1ccc(OC)c(-n2cc3c(=O)n(C)c(=O)n(C)c3c2)c1,"20 µM [falling, single point]",–
COc1cc(C(=O)Nc2nc(OC)c(-c3ccccc3)c(OC)n2)cc(OC)c1OC,"12.6 µM [rising, single point]",–
O=C(Nc1ccc(F)cc1F)c1ccc(-n2cccn2)nc1,"15.8 µM [falling, single point]",–
CCOc1ccc(NS(=O)(=O)c2ccc(OC)c(C)c2)cc1,"20.6 µM [falling, single point]",–
CCN(CC)c1ccc(/C=N/NC(=O)c2ccc3nc[nH]c3c2)cc1,"15.8 µM [falling, partial curve]",–
COc1ccccc1/C=C1\SC(=S)N(CCC(=O)N2CCN(C)CC2)C1=O,"3.55 µM [falling, full curve]",–
CC1(C)Cc2c(cnn2-c2ccccc2)-c2c1c1ccccc1n2CC(O)CCl (configuration not stated),"6.51 µM [falling, full curve]","20.6 µM [rising, single point]"
COc1ccccc1N1CCN(c2nc(N)c(C#N)c(CC#N)c2C#N)CC1,"3.16 µM [rising, partial curve, poor fit]",–
O=C(Nc1ccc2c(c1)OCCO2)c1ccc(Cl)c([N+](=O)[O-])c1,"16.4 µM [falling, single point]",–
Cc1ccc(NC(=O)CN2C(=O)NC3(CCCCCCC3)C2=O)cc1C,"14.6 µM [falling, partial curve]",–
Cc1ccc(NS(=O)(=O)c2ccc(C(=O)NCc3cccnc3)cc2)cc1,"7.08 µM [falling, partial curve]",–
Cc1ccc(-n2cccc2/C=C2/C(=N)N3C(=NC2=O)SN=C3S(C)(=O)=O)cc1Cl,–,"18.4 µM [rising, partial curve, poor fit]"
Cc1ccccc1-n1nc2c(c1NC(=O)C(C)(C)C)CS(=O)(=O)C2,"0.112 µM [rising, full curve, poor fit]",–
O=C(O)CN1CCN(Cc2ccc(Cl)cc2)C1=O,"6.51 µM [rising, partial curve, poor fit]",–
COc1cccc(N/N=C/c2cccc(Br)c2O)c1,"1.12 µM [falling, partial curve, poor fit]",–
COc1ccc(C(=O)/C=C/Sc2nc3ccccc3o2)cc1,"12.6 µM [rising, single point]",–
CCC(CC)C(=O)N1CCN(Cc2nc3ccccc3c(=O)[nH]2)CC1,"35.5 µM [falling, single point]",–
Cc1ccc(CCNC(=O)C2CCCN(S(=O)(=O)c3cccs3)C2)cc1 (configuration not stated),"0.731 µM [falling, single point]",–

# — PubChem BioAssay AID493014 (National Center for Advancing Translational Sciences (NCATS), 2011)
